Binding data for three molecules are collected here from doi:10.1101/2020.01.29.925610.

Chains of the proteins cited; added tags and fusions are not shown. Lines headed by an entry give the natural chain unless they say otherwise; changes in a name come on top. Residues count along the entry.
GST-SMO^Ctail (aa 543-793) (P56726, residues 543-793): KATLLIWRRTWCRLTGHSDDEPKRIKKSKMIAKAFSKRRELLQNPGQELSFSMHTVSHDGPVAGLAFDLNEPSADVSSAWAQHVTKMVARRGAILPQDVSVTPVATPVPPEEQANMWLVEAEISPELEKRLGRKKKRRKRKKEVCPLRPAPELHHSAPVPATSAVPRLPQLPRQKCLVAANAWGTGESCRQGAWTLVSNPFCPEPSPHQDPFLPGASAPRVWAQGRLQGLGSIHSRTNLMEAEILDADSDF
SMO^Ctail with the first 10 amino acids deleted, yeast two-hybrid construct (P56726, residues 553-793): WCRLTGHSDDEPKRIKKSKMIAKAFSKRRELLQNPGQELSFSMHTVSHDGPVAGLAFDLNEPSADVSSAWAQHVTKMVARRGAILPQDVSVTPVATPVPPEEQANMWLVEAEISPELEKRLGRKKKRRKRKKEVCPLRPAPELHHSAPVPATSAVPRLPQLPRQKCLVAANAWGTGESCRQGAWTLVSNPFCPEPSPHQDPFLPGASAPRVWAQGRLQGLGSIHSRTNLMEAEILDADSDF

No constants are given. Whether binding was seen depends on the method and setting. For part of these data: In cells and extracts the contact can be indirect. Some binding calls cover weakened binding; strength is not graded here. For part of these data: Where a sequence is shown, tags or fusion partners need not be part of it.

In experiment [1] the target is SMO^Ctail, yeast two-hybrid construct (UniProt P56726). The experiment is described as follows: two-hybrid.
Experiment [2] deals with SMO^Ctail with the first 10 amino acids deleted, yeast two-hybrid construct (UniProt P56726). The experiment is described as follows: two-hybrid.
The target in experiment [3] is T1, BBS2^C (residues 324-712), yeast two-hybrid construct (UniProt Q9BXC9).
T1 sequence: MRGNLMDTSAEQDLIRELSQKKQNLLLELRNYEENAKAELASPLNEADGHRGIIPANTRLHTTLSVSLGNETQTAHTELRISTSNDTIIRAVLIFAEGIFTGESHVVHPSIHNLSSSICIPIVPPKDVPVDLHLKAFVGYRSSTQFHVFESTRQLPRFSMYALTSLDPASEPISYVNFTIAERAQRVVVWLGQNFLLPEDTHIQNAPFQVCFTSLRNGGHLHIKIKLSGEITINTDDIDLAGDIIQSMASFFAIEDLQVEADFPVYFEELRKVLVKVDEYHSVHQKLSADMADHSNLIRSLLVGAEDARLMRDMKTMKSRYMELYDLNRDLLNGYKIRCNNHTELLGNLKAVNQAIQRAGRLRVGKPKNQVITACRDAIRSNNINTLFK
The experiment is described as follows: two-hybrid.

The target in experiment [4] is T2, GST-SMO^H8 (aa 543-559) (mouse) (UniProt P56726).
T2 sequence: KATLLIWRRTWCRLTGH
The experiment is described as follows: pull-down.

In experiment [5] the target is GST-SMO^Ctail (aa 543-793) (mouse) (UniProt P56726). The experiment is described as follows: pull-down.

B1: BBS7^C (residues 326-672), yeast two-hybrid construct (domain or fragment, UniProt Q8IWZ6-2 326-672)
chain: SGPGEELKINQEMQNKISSLRNELEHLQYKVLQERENYQQSSQSSKAKSAVPSFGINDKFTLNKDDASYSLILEVQTAIDNVLIQSDVPIDLLDVDKNSAVVSFSSCDSESNDNFLLATYRCQADTTRLELKIRSIEGQYGTLQAYVTPRIQPKTCQVRQYHIKPLSLHQRTHFIDHDRPMNTLTLTGQFSFAEVHSWVVFCLPEVPEKPPAGECVTFYFQNTFLDTQLESTYRKGEGVFKSDNISTISILKDVLSKEATKRKINLNISYEINEVSVKHTLKLIHPKLEYQLLLAKKVQLIDALKELQIHEGNTNFLIPEYHCILEEADHLQEEYKKQPAHLERLYG
On to B1, for which the binding entry was “binds” in experiment [1], “no binding” in experiment [2] and “binds” in experiment [3].

B2: BBS7^βprop (aa 1-332), in vitro translated, 6xMyc (domain or fragment, UniProt Q8IWZ6-2 1-332)
chain: MDLILNRMDYLQVGVTSQKTMKLIPASRHRATQKVVIGDHDGVVMCFGMKKGEAAAVFKTLPGPKIARLELGGVINTPQEKIFIAAASEIRGFTKRGKQFLSFETNLTESIKAMHISGSDLFLSASYIYNHYCDCKDQHYYLSGDKINDVICLPVERLSRITPVLACQDRVLRVLQGSDVMYAVEVPGPPTVLALHNGNGGDSGEDLLFGTSDGKLALIQITTSKPVRKWEIQNEKKRGGILCIDSFDIVGDGVKDLLVGRDDGMVEVYSFDNANEPVLRFDQMLSESVTSIQGGCVGKDSYDEIVVSTYSGWVTGLTTEPIHKESGPGEEL
Regarding B2, in experiment [4], the binding result was “binds”.

B3: BBS7, in vitro translated, tagged with a 6xMyc epitope (protein, UniProt Q8IWZ6-2 1-672)
chain: MDLILNRMDYLQVGVTSQKTMKLIPASRHRATQKVVIGDHDGVVMCFGMKKGEAAAVFKTLPGPKIARLELGGVINTPQEKIFIAAASEIRGFTKRGKQFLSFETNLTESIKAMHISGSDLFLSASYIYNHYCDCKDQHYYLSGDKINDVICLPVERLSRITPVLACQDRVLRVLQGSDVMYAVEVPGPPTVLALHNGNGGDSGEDLLFGTSDGKLALIQITTSKPVRKWEIQNEKKRGGILCIDSFDIVGDGVKDLLVGRDDGMVEVYSFDNANEPVLRFDQMLSESVTSIQGGCVGKDSYDEIVVSTYSGWVTGLTTEPIHKESGPGEELKINQEMQNKISSLRNELEHLQYKVLQERENYQQSSQSSKAKSAVPSFGINDKFTLNKDDASYSLILEVQTAIDNVLIQSDVPIDLLDVDKNSAVVSFSSCDSESNDNFLLATYRCQADTTRLELKIRSIEGQYGTLQAYVTPRIQPKTCQVRQYHIKPLSLHQRTHFIDHDRPMNTLTLTGQFSFAEVHSWVVFCLPEVPEKPPAGECVTFYFQNTFLDTQLESTYRKGEGVFKSDNISTISILKDVLSKEATKRKINLNISYEINEVSVKHTLKLIHPKLEYQLLLAKKVQLIDALKELQIHEGNTNFLIPEYHCILEEADHLQEEYKKQPAHLERLYG
As to B3, the binding result in experiment [4] and in experiment [5] was “binds” in each case.
